Measurements as given in PMC3258524.
No constants are given. Whether binding was seen depends on the method and setting. Some binding calls cover weakened binding; strength is not graded here.

Amino acid sequences for entries named in this document (tags omitted). A change or cut given only in a name is not applied to a line headed by its entry. Chains listed by the source or under a name are the forms on record and can include a tag or linker. Residues count along the entry.
MITF serine-rich C-terminal activation domain S (MITF-A residues 402-520) (O75030, residues 408-526): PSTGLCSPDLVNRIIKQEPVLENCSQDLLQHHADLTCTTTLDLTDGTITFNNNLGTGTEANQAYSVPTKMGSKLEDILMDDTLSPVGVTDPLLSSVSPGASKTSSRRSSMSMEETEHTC
MITF-A activation domain AD (residues 118-297) (O75030, form named): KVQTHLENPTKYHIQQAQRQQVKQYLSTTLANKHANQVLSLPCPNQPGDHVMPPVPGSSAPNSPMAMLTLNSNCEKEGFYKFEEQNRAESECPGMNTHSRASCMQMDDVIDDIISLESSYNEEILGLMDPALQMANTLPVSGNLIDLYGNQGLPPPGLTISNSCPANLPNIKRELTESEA
MITF-A fragment A-B1b-AD (residues 1-297) (O75030, form named): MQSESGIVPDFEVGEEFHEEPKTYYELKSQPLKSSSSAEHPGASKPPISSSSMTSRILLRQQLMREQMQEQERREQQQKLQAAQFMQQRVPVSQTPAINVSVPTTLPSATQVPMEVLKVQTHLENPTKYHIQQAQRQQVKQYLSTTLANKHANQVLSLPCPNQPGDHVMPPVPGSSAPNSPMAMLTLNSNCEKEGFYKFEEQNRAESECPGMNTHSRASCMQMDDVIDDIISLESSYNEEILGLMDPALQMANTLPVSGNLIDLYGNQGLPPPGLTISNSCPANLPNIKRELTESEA
MITF-A fragment B1b-AD (residues 36-297) (O75030, form named): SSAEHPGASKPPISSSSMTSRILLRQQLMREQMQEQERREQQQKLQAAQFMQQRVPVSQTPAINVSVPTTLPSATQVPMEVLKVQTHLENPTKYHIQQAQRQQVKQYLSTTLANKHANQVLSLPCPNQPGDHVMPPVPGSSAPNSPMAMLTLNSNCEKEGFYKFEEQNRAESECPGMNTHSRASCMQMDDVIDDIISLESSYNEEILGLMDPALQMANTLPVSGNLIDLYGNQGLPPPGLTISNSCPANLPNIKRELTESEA
MITF-M fragment M-AD (residues 1-196) (O75030, form named): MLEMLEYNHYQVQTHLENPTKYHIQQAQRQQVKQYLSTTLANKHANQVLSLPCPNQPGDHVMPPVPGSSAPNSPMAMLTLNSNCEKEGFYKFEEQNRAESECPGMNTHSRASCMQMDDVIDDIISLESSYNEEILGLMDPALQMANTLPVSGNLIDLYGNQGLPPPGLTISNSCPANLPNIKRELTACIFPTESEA
full-length MITF-A (microphthalmia-associated transcription factor, isoform A) (O75030, form named): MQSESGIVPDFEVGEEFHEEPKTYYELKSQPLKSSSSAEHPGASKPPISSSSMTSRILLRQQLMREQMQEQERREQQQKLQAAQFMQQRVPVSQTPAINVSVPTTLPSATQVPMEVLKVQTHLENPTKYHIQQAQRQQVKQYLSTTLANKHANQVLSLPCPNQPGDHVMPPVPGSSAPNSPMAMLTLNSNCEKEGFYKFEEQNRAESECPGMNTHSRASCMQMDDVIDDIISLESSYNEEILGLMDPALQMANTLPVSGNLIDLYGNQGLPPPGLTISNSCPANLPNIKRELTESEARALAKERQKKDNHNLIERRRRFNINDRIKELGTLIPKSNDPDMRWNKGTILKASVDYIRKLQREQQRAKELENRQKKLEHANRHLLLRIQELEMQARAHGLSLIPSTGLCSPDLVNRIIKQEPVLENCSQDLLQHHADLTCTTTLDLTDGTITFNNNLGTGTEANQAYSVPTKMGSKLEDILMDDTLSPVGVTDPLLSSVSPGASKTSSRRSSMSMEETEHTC
full-length MITF-M (microphthalmia-associated transcription factor, isoform M) (O75030, form named): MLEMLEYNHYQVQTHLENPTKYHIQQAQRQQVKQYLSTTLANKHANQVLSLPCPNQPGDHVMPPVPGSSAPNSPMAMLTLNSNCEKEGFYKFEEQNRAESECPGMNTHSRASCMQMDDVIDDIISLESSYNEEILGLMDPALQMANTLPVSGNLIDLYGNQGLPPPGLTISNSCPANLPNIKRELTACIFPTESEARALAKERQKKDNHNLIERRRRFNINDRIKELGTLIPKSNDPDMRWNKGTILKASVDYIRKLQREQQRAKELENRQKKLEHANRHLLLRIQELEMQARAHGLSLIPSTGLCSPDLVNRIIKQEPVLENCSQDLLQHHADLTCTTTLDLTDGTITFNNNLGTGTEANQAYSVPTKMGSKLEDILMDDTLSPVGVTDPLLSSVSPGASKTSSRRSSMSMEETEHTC
OTX2 DNA-binding homeodomain HD (residues 37-109) (P32243-2, form named): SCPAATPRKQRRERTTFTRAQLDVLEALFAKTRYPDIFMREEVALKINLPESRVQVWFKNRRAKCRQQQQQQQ
full-length OTX2 (orthodenticle homeobox 2) (P32243-2, form named): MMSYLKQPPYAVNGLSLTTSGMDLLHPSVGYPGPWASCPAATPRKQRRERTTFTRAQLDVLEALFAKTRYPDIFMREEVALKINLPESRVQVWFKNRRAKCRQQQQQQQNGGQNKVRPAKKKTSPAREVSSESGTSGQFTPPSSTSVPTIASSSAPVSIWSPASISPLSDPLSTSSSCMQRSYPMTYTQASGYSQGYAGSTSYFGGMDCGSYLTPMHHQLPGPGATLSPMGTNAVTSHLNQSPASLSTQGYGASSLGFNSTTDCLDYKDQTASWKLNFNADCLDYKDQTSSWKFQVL

Columns and labels:
Test in all cases: two-hybrid; Matchmaker GAL4 System 3 in yeast; MITF constructs in pGBKT7 (GAL4 DNA-binding domain) as bait, OTX2 constructs in pGADT7 (GAL4 activation domain) as prey; beta-galactosidase reporter, compared with autoactivation of bait or prey alone
[1] = biological target: MITF serine-rich C-terminal activation domain S (MITF-A residues 402-520) (UniProt O75030)
[2] = biological target: MITF-A activation domain AD (residues 118-297) (UniProt O75030)
[3] = biological target: MITF-A fragment A-B1b-AD (residues 1-297) (UniProt O75030)
[4] = biological target: MITF-A fragment B1b-AD (residues 36-297) (UniProt O75030)
[5] = biological target: MITF-M fragment M-AD (residues 1-196) (UniProt O75030)
[6] = biological target: full-length MITF-A (microphthalmia-associated transcription factor, isoform A) (UniProt O75030)
[7] = biological target: full-length MITF-M (microphthalmia-associated transcription factor, isoform M) (UniProt O75030)

Measured: binding

OTX2 DNA-binding homeodomain HD (residues 37-109) (from UniProt P32243-2 37-109) (domain or fragment)
binds: [1] | [2]

full-length OTX2 (orthodenticle homeobox 2) (from UniProt P32243-2 1-297)
binds: [1] | [2] | [3] | [4] | [5] | [6] | [7]
